Results of single-concentration screens

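Growth of Mycobacterium tuberculosis over 4 days (cholesterol / DPPC medium with tyloxapol); the read-out is not stated. Concentration: 50 µM. The record gives no direction; compounds that gave an IC50 in retests scored well above the rest, so higher reads as more growth inhibition. Size under these conditions: about 69,000 compounds, about 370 of them at 50% or above in at least one test.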

Values are the deposited “Percent Effect”, in %. How 0% and 100% were set is not recorded. Most values in the screen are low, and negative values occur. Compounds were drawn at random from those tested, without regard to their results. Two or more numbers in one place are separate tests of the same structure; such repeats can differ widely.

CCOC(=O)CN1CCC2(CC1)CC(NC(=O)c1ccccn1)CO2 (stereo not given) gave -2.004% and -8.113%. For CN1CCC(c2nnc(CN3CCOCC3)n2C)CC1 the result was 13.42%. COCc1cnc2n1CCN(C(=O)c1cn(C)c3ccccc13)C2C (stereo not given) gave -16.92%. Result for O=C(Nc1ccc(-n2ccc(C(=O)O)n2)cc1)c1ccccc1 was -1.013%.

Result for CC(C)c1noc(Cn2ncn3cccc3c2=O)n1 was -26.89%. CCN(CC)c1ccc(C(=O)N2CCCC2Cn2cc(C)cn2)cn1 (stereo not given) gave 1.04%. With O=C(NCCCN1CCCCC1)c1n[nH]c(=O)c2ccccc12 the screen gave -7.334%. O=C(O)C(F)(F)F.[H][C@@]12CCN(Cc3ccco3)C[C@]1(C(=O)NC(C)C)CCO2 gave -5.974%.

[H][C@]12CCC[C@@]1(COCc1cccnc1)CN(C(=O)Cc1ccco1)C2 gave -7.923%. Cc1cccc(N2CCc3ncc(CNS(C)(=O)=O)n3CC2)n1.O=C(O)C(F)(F)F gave 7.945%. With Cn1cncc1CN1CCC2(CC1)COCCN(S(C)(=O)=O)C2.O=C(O)C(F)(F)F the screen gave 5.541%. For COc1c(CNCc2cccnc2OC(C)C)c(C(C)C)nn1C the result was 3.412%.

With CCCc1nnc(NC(=O)NC(C)Cn2cccn2)s1 (stereo not given) the screen gave -12.55%. Result for CCOCC1CN(Cc2ccc(F)cc2)Cc2nn(C)cc21.O=C(O)C(F)(F)F (stereo not given) was -8.995%. O=C(NCC1CCOC1)c1cc(-c2ccc(F)cc2)[nH]n1 (stereo not given) gave -8.688%. Result for Cc1ccccc1-c1noc(CNc2ccc(F)cc2OCCO)n1 was 18.48%.

With CC(C)COC(C)C(=O)NCCNC(=O)C(C)C (stereo not given) the screen gave -17.56%. [H][C@@]12CCN(C(=O)Cc3csc4ccccc34)C[C@]1([H])OCCNC2=O read -17.74%. For CC(C)c1nnc(NC(=O)Cc2csc(-c3nnc[nH]3)n2)s1 the result was -10.75%. With O=C(NCC1CN(c2ncccn2)Cc2nccn2C1)c1cccnc1.O=C(O)C(F)(F)F (stereo not given) the screen gave 8.755%.

For CC(C#N)CSc1ccccc1NCC(=O)NC(C1CC1)C1CC1 (stereo not given) the result was -9.97%. O=C(O)C(F)(F)F.[H][C@@]12CN(Cc3ccc(OC)cc3)C[C@]1([H])OCCN2C gave 0.6081%. For CC1CN(CCC(=O)NCCc2cccnc2)Cc2ccccc2O1 (stereo not given) the result was -10.39%. CCCn1nnnc1COC(=O)C1Cc2cc(Cl)ccc2O1 (stereo not given) gave -9.384%.

Cc1ccc(CN2CCN(c3ncnc4[nH]cnc34)CC2CCO)cc1 (stereo not given) gave 2.378%. With OC1(CNCCc2nc(Cc3ccccc3)no2)CNCCOC1 (stereo not given) the screen gave 9.733%. COc1ccc(CNCC2CCN(CC(C)O)CC2)c2ccccc12 (stereo not given) read -2.787%. Result for [H][C@]12CCN(C(=O)c3cnccn3)[C@@]1([H])CC[C@@H](COCC)O2 was 3.297%.

Result for Cc1nc(CN2CCN(C(=O)CCc3ccco3)CC2)cs1 was 0.7972%. Result for Cc1nc(NC(=O)OC(C)(C)C)sc1C(=O)O was -23.62%. Result for Br.Cc1ccc(OCCSC2=NCCN2)cc1 was 23.44%. For [H][C@@]12CCN(C[C@@H]1c1cc(-c3cccs3)nn1C)[C@@H](CN)C2 the result was 20.78%.

Result for COC(=O)CC1CSCCN1C(=O)CCc1c(C)nn(C)c1C (stereo not given) was -21.05%. CC(C)c1nccn1C(C)C(=O)NC1Cc2ccccc2C1 (stereo not given) read -8.93%. Result for CN1CCC(Cc2noc(-c3cccc(OCC(N)=O)c3)n2)CC1 was -18.45%. Cc1n[nH]c(C2CN(C(=O)c3ccnc(C4CC4)n3)CCO2)n1 (stereo not given) gave -18.12%.

For Cc1nnc(NCCc2coc(-c3ccc(F)cc3)n2)c(C#N)c1C the result was 17.18%. With COC(=O)N1CCCC(NC(=O)NCc2csc(C)n2)C1 (stereo not given) the screen gave -4.925%. CC(C(N)=O)S(=O)(=O)Cc1cc(Cl)c2c(c1)OCO2 (stereo not given) gave -28.08%. Clc1ccc2cccnc2c1CN1CCCCC1Cn1cncn1 (stereo not given) gave 23.52%.

With CCOC(=O)N1CCN(c2nc(NC)c3ccccc3n2)CC1 the screen gave -0.6842%. For O=C(O)C(F)(F)F.c1cnc(NC2COC3(CCN(Cc4ccoc4)CC3)C2)nc1 (stereo not given) the result was -1.647%. O=C(O)C(F)(F)F.O=C(O)C(F)(F)F.O=C(O)C(F)(F)F.[H][C@@]12CN(Cc3nccs3)C[C@H](C(=O)Nc3cccnc3)[C@]1([H])CCO2 gave -16.94%. With CCC[C@@H]1CN(Cc2ccc(N(C)C)nc2)C[C@H]1N(C)C the screen gave -1.337% and -13.74%.

Once more, the final 3:

compound	Percent Effect
O=C(O)C(F)(F)F.c1cnc(NC2COC3(CCN(Cc4ccoc4)CC3)C2)nc1 (stereo not given)	-1.647
O=C(O)C(F)(F)F.O=C(O)C(F)(F)F.O=C(O)C(F)(F)F.[H][C@@]12CN(Cc3nccs3)C[C@H](C(=O)Nc3cccnc3)[C@]1([H])CCO2	-16.94
CCC[C@@H]1CN(Cc2ccc(N(C)C)nc2)C[C@H]1N(C)C	-1.337 and -13.74

Source: ChEMBL document CHEMBL3988442, “University of Dundee, Small-Polar-MMV Screening Library” (2021).